These are yes or no findings as the source states them, for the method shown. Binding calls can cover weak binding; strength is not graded here.
Legend:
[1] = molecular target: recombinant cynomolgus PD-1 (cynomolgus); assay: ELISA, recombinant protein coated
[2] = molecular target: recombinant cynomolgus PD-1 (cynomolgus); assay: ELISA on coated recombinant protein, one antibody concentration (not given)
[3] = molecular target: recombinant cynomolgus PD-1 (cynomolgus); assay: ELISA, detection with anti-human IgG4 heavy chain or anti-human lambda light chain
[4] = molecular target: recombinant cynomolgus PD-1 (cynomolgus); assay: ELISA, recombinant protein coated (FIG. 6)

Measured: binding

B1: anti-PD-1 antibody RG1H10 (IgG, isotype not stated in the assay) (antibody, V domains shown)
VH: QVQLVQSGSELKKPGASVKISCKASGYIFSDNGVNWVRQAPGQGLEWMGWINTKIGNPTYAQGFTGRFVFSLDTSISTTYLQISSLQAGDTAVYYCAREHDYYYGMDVWGQGTTVTVSS
VL: QSALTQPPSASGSPGQSVTISCTGTSSDVGGYNYVSWYQHHPGKAPKLMIYEVSKRPSGVPDRFSGSKSAITASLTISGLLTEDEADYYCSAWDDSLNADVFGGGTKVTVL
binds: all assays above

— patent US20170313776A1
